This note sets out measurements from PubChem BioAssay AID200 (DTP/NCI, 2004).

The list shows only some results of the screen, not a fair sample: it is rich in T/C values a quarter to a half above the control, in often repeated tests (any T/C) and in doses without a T/C. Further doses and runs are listed elsewhere. T/C is the treated group as % of the vehicle group. Some entries give survivors of the animals treated and no T/C: the source files T/C as zero there, which appears to mark a toxic dose or a test without result, not a measured value. Some survivor counts are full or nearly so, which does not show that the dose was tolerated: survival well below the control is almost never listed, so the zero probably covers shortened survival too. Counts of survivors are from the toxicity check (mostly the fifth day) where no day follows; animals may have died later. Schedule codes are those of the source, read here as Q, the interval in days (D) or hours (H), X, the number of doses. Some entries hold several experiments; their values stand side by side, smallest first. For survival time, this PubChem deposit counts one and a half times the control or more as active, and values a quarter to a half above the control carry no call in these data; other NCI protocols may use other cut-offs. Some T/C values are followed by the survivors on the day toxicity was checked, most often the fifth; where none is given, no animal had died by that day.

The assay relates to B6C3F1 mice, B16 melanoma ip, median survival T/C. The assay can be described thus: NCI In Vivo Anticancer Drug Screen. Data for tumor model B16 Melanoma (intraperitoneal) in B6C3F1 mice. The settings on record: T/C endpoint: median survival time, higher T/C = longer survival. The method, then: The antitumor activity of compounds was measured in mice bearing transplantable tumors. Survival or tumor size were measured and the results are expressed as the measurement made in the treated group (T) divided by the measurement made in the vehicle treated control group (C). The tumor model used in this assay is B16 Melanoma (intraperitoneal) in B6C3F1 mice

Setting [1] is: dose: 6.25 mg/kg/injection, schedule: Q01DX009 (ip), vehicle: saline.
[2] abbreviates: dose: 12.5 mg/kg/injection, schedule: Q01DX009 (ip), vehicle: saline.

Regarding `CC[C@@H](C)[C@@H]1NC(=O)C(NC(=O)C(CC(C)C)N(C)C(=O)C2CCCN2C(=O)C(C)O)C(C)OC(=O)C(Cc2ccc(OC)cc2)N(C)C(=O)C2CCCN2C(=O)C(CC(C)C)NC(=O)C(C)C(=O)C(C(C)C)OC(=O)C[C@H]1O` (stereo partly drawn), the T/C is, setting by setting: (dose: 20.0 micrograms/kg/injection, schedule: Q01DX009 (ip), vehicle: other) 141 % of control; (dose: 40.0 micrograms/kg/injection, schedule: Q01DX005 (ip), vehicle: other) 125 and 130 % of control; (dose: 40.0 micrograms/kg/injection, schedule: Q01DX009 (ip), vehicle: distilled water + alcohol) 145 % of control; (dose: 40.0 micrograms/kg/injection, schedule: Q01DX009 (ip), vehicle: other) 137 % of control; (dose: 47.0 micrograms/kg/injection, schedule: Q01DX009 (ip), vehicle: other) 145 % of control; (dose: 47.0 micrograms/kg/injection, schedule: Q01DX009 (ip), vehicle: saline) 143 % of control. Moreover, the T/C (dose: 71.0 micrograms/kg/injection, schedule: Q01DX009 (ip), vehicle: saline) was 143 % of control; the T/C (dose: 80.0 micrograms/kg/injection, schedule: Q01DX005 (ip), vehicle: other) is 140 % of control; the T/C (dose: 80.0 micrograms/kg/injection, schedule: Q01DX009 (ip), vehicle: distilled water + alcohol) was 147 % of control [9 of 10 alive]; the T/C (dose: 80.0 micrograms/kg/injection, schedule: Q01DX009 (ip), vehicle: other) is 145 % of control; the T/C (dose: 80.0 micrograms/kg/injection, schedule: Q03HX008 (ip), vehicle: saline) was 135 % of control [9 of 10 alive]; the T/C (dose: 106.0 micrograms/kg/injection, schedule: Q01DX009 (ip), vehicle: saline) was 149 % of control. The T/C (dose: 160.0 micrograms/kg/injection, schedule: Q01DX001 (ip), vehicle: other) was 131 % of control; the T/C (dose: 160.0 micrograms/kg/injection, schedule: Q01DX005 (ip), vehicle: other) is 128 and 137 % of control [9 of 10 alive]; the T/C (dose: 160.0 micrograms/kg/injection, schedule: Q01DX009 (ip), vehicle: other) is 144 and 149 % of control; the T/C (dose: 320.0 micrograms/kg/injection, schedule: Q01DX001 (ip), vehicle: other) is 125 and 130 % of control; the T/C (dose: 320.0 micrograms/kg/injection, schedule: Q01DX001 (ip), vehicle: saline) is 125 % of control; the T/C (dose: 640.0 micrograms/kg/injection, schedule: Q01DX001 (ip), vehicle: other) is 134 % of control. Moreover, the T/C reads like this: (dose: 640.0 micrograms/kg/injection, schedule: Q01DX001 (ip), vehicle: saline) 132 % of control; (dose: 1280.0 micrograms/kg/injection, schedule: Q01DX001 (ip), vehicle: other) 140 % of control [8 of 10 alive]. Moreover, the survivor count reads like this: (dose: 160.0 micrograms/kg/injection, schedule: Q03HX008 (ip), vehicle: saline) 6 of 10; (dose: 240.0 micrograms/kg/injection, schedule: Q01DX009 (ip), vehicle: other) 9 of 10; (dose: 240.0 micrograms/kg/injection, schedule: Q01DX009 (ip), vehicle: saline) 9 of 10; (dose: 320.0 micrograms/kg/injection, schedule: Q01DX005 (ip), vehicle: other) 9 of 10; (dose: 320.0 micrograms/kg/injection, schedule: Q01DX009 (ip), vehicle: other) 3 of 10 and 9 of 10; (dose: 320.0 micrograms/kg/injection, schedule: Q03HX008 (ip), vehicle: saline) 0 of 10. In addition, the survivor count (dose: 640.0 micrograms/kg/injection, schedule: Q01DX005 (ip), vehicle: other) is 1 of 10 and 7 of 10; the survivor count (dose: 640.0 micrograms/kg/injection, schedule: Q01DX005 (iv), vehicle: other) was 7 of 10 and 8 of 10; the survivor count (dose: 640.0 micrograms/kg/injection, schedule: Q01DX005 (sc), vehicle: other) is 4 of 10 and 10 of 10; the survivor count (dose: 640.0 micrograms/kg/injection, schedule: Q01DX009 (ip), vehicle: other) is listed as 5 of 10; the survivor count (dose: 640.0 micrograms/kg/injection, schedule: Q03HX008 (ip), vehicle: saline) is recorded as 0 of 10; the survivor count (dose: 1280.0 micrograms/kg/injection, schedule: Q01DX005 (ip), vehicle: other) is 0 of 10. Besides, the survivor count reads like this: (dose: 1280.0 micrograms/kg/injection, schedule: Q01DX005 (iv), vehicle: other) 0 of 10; (dose: 1280.0 micrograms/kg/injection, schedule: Q01DX005 (sc), vehicle: other) 2 of 10; (dose: 1280.0 micrograms/kg/injection, schedule: Q01DX009 (ip), vehicle: other) 0 of 10; (dose: 2560.0 micrograms/kg/injection, schedule: Q01DX001 (ip), vehicle: other) 5 of 10 and 6 of 10; (dose: 2560.0 micrograms/kg/injection, schedule: Q01DX001 (ip), vehicle: saline) 1 of 10; (dose: 2560.0 micrograms/kg/injection, schedule: Q01DX001 (iv), vehicle: other) 0 of 10 and 2 of 10. In addition, the survivor count (dose: 2560.0 micrograms/kg/injection, schedule: Q01DX001 (sc), vehicle: other) is given as 6 of 10; the survivor count (dose: 2560.0 micrograms/kg/injection, schedule: Q01DX005 (sc), vehicle: other) is 0 of 10; the survivor count (dose: 5120.0 micrograms/kg/injection, schedule: Q01DX001 (ip), vehicle: other) was 0 of 10 and 1 of 10; the survivor count (dose: 5120.0 micrograms/kg/injection, schedule: Q01DX001 (ip), vehicle: saline) is listed as 0 of 10; the survivor count (dose: 5120.0 micrograms/kg/injection, schedule: Q01DX001 (iv), vehicle: other) is 0 of 10; the survivor count (dose: 5120.0 micrograms/kg/injection, schedule: Q01DX001 (sc), vehicle: other) is 0 of 10 and 1 of 10. In addition, the survivor count is, setting by setting: (dose: 5120.0 micrograms/kg/injection, schedule: Q01DX005 (oral), vehicle: other) 0 of 10; (dose: 10240.0 micrograms/kg/injection, schedule: Q01DX001 (ip), vehicle: other) 0 of 10; (dose: 10240.0 micrograms/kg/injection, schedule: Q01DX001 (iv), vehicle: other) 0 of 10; (dose: 10240.0 micrograms/kg/injection, schedule: Q01DX001 (oral), vehicle: other) 1 of 10; (dose: 20480.0 micrograms/kg/injection, schedule: Q01DX001 (oral), vehicle: other) 0 of 10; (dose: 40960.0 micrograms/kg/injection, schedule: Q01DX001 (oral), vehicle: other) 0 of 10.

For the molecule `N=C(N)CCCCCCCCC(=N)N`, the T/C (dose: 0.78 mg/kg/injection, schedule: Q01DX009 (ip), vehicle: saline) is 126 % of control; the T/C (dose: 1.56 mg/kg/injection, schedule: Q01DX009 (ip), vehicle: saline) is 129 % of control; the T/C (dose: 3.12 mg/kg/injection, schedule: Q01DX009 (ip), vehicle: saline) was 132 % of control. The survivor count was 10 of 10 under setting [1]; 9 of 10 and 10 of 10 under setting [2]; 4 of 10, 6 of 10, 9 of 10 (dose: 25.0 mg/kg/injection, schedule: Q01DX009 (ip), vehicle: saline).

In the case of `Cc1c2cc[n+](CCN3CCCCC3)cc2c(C)c2c1[nH]c1ccc(O)cc12`, the T/C is 136 % of control (dose: 1.56 mg/kg/injection, schedule: Q01DX009 (ip), vehicle: suspension in saline); 141 % of control (dose: 3.12 mg/kg/injection, schedule: Q01DX009 (ip), vehicle: suspension in saline); 140 % of control under setting [1]; 138 and 146 % of control under setting [2]. For the same molecule, the survivor count by setting is: (dose: 25.0 mg/kg/injection, schedule: Q01DX009 (ip), vehicle: suspension in saline) 10 of 10; (dose: 50.0 mg/kg/injection, schedule: Q01DX009 (ip), vehicle: saline) 8 of 8; (dose: 50.0 mg/kg/injection, schedule: Q01DX009 (ip), vehicle: suspension in saline) 10 of 10.
